Data on one substance can be found in publication PMC10902300.

Protein sequences, listed by entry. Tags and fused reporters are not part of them. Lines headed by an entry give the natural chain unless they say otherwise; changes in a name come on top.
UniProt P15923: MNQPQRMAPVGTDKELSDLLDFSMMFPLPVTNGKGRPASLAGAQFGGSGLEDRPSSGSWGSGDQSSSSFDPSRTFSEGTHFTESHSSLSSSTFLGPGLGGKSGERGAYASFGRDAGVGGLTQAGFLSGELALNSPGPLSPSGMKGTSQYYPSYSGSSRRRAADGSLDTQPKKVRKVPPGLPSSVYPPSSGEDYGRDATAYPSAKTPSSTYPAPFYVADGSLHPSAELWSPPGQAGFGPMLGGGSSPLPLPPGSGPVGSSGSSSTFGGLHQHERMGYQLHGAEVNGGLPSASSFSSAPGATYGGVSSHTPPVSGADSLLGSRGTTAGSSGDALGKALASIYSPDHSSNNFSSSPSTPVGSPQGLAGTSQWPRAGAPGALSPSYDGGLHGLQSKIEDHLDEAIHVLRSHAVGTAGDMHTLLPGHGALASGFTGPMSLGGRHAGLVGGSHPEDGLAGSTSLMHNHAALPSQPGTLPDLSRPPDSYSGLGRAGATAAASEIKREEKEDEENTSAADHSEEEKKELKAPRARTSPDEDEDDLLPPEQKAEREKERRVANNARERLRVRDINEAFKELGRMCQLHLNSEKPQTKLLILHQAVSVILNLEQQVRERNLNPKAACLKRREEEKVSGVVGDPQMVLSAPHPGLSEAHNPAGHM
UniProt Q02363: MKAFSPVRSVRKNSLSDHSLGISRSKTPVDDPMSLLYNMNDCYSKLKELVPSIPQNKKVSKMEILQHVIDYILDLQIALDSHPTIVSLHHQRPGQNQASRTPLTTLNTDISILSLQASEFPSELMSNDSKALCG

For this assay, the target named is Tcf3 in Jurkat cells (human (endogenous in Jurkat)) (UniProt P15923). As to the kind of experiment: co-IP; Pierce co-IP kit; lysates of Jurkat cells, GFP-Id2^WT and GFP-Id2^ΔHLH Jurkat cells, with or without anti-CD3 antibody; IP lysis buffer (0.025 M Tris, 0.15 M NaCl, 0.001 M EDTA, 1% NP-40, 5% glycerol); antibody-conjugated resin (anti-GFP, anti-Flag or anti-Tcf3) overnight at 4 °C; immunoblot. Background: A western blot detects proteins with antibodies after separation by electrophoresis.

No constants are given. Whether binding was seen depends on the method and setting. In cells and extracts the contact can be indirect. Binding can be weak; no strength is given.

As to “GFP-Id2^ΔHLH (HLH-deleted Id2) (from UniProt Q02363)”, the binding result is recorded as “binds”.
